For at least one compound, name, drawing or mass did not settle the structure.
Assays:
Assay type in all cases: in vivo, SKH-1 hairless mouse
[1] = tested on: mast cells; assay: Toluidine blue staining; conditions: RA 0.01%, GT/WT/BT 2%
[2] = tested on: MMP-2; assay: Zymography, MMP-2 activity in skin tissue; conditions: compared to the control group
[3] = tested on: inflammatory cells in the skin; assay: Hematoxylin & eosin staining of mouse skin; conditions: RA 0.01%, GT/WT/BT 2%
[4] = tested on: elastin fibers; assay: Verhoeff staining; conditions: compared to the control group
[5] = tested on: collagen fibers; assay: Masson's trichrome staining; conditions: RA 0.01%, GT/WT/BT 2%
[6] = tested on: UVB-induced wrinkles; assay: Measurement of wrinkles (skin replica, Visioline); conditions: compared with the control group
Description: 7-week-old SKH-1 hairless mice was purchased from Charles River (Japan). The animals were accustomed to the test environment for 1 week. The animals were housed in individual cages under the environment of 22±1° C. and 50±5% relative humidity with 12-hour alternate dark/light cycles. Feed and water were given ad libitum. The animals were grouped into 7 groups as follows, with 7 mice per each:
The mouse was subjected to UVB radiation (302 nm sunlamp) on the back for […], 3 times a week. The radiation amount was 1 minimal erythemal dose (MED: 60 mJ/cm^2) on the 1st week, 2 MED (120 mJ/cm^2) on the 2nd week, 3 MED (180 mJ/cm^2) on the 3rd week, and 4 MED (240 mJ/cm^2) on the 4th to 12th weeks. The radiation with 4 MED was carried out once a week during the test period.
After inducing wrinkle formation, 200 μL of saline or the sample was applied for 4 weeks, 5 times a week (2%: 0.26 g/kg BW/day). RA was applied together with polyethylene glycol at a concentration of 0.01% for 4 weeks, 5 times a week, twice a day, with 200 μL per each.
Skin replica was prepared from the back skin of the hairless mouse using the Silflo impression material (Flexico, England). The roughness of the skin was assessed using Visioline. Total wrinkle area (mm^2) was calculated.

[7] = tested on: MMP-9; assay: Zymography, MMP-9 activity in skin tissue; conditions: compared to the control group

`CC1=C(/C=C/C(C)=C/C=C/C(C)=C/C(=O)O)C(C)(C)CCC1` [RA, retinoic acid] was tested, and the “mast cell distribution pattern and degree of degranulation” value [1] was “a relatively small number of mast cells and very week degranulation”, the “activity of MMP-2 protein in the skin tissue” value [2] was “remarkably lower activity” and the “inflammatory cells in the skin (H&E)” value [3] was “only a small number of inflammatory cells”. For the same compound, the “quantity and shape of elastin fibers in the skin” value [4] was “less abnormality of elastin fibers”, the “quantity and shape of collagen fibers in the skin” value [5] was “almost intact and showed regular arrangement” and the “skin wrinkle observation” value [6] was “improvement of wrinkles”. For the same compound, the “activity of MMP-9 protein in the skin tissue” value [7] was “remarkably lower activity”.

From patent US20120156150A1, “Composition for Improving Skin Condition Comprising Extract from Black Tea as Active Ingredient” (Keimyung University Industry Academic Cooperation Foundation, priority 2010, published 2012)
